Data taken from the supplement of paper PMC12823440, “Inhibitors supercharge kinase turnover through native proteolytic circuits” (Nature, 2025).
The other results are listed elsewhere or left out. Hit calls seldom repeat between salt and free forms of one compound.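 Kinases, fused to nanoluciferase, were expressed in K562 cells; luminescence was measured every 4 h from 2 to 18 h as percent of control (DMSO = 100%, positive control = 0%). A time point is decreased if signal falls significantly (2 sigma). Hits were called by the authors by a rule that is not shown; the count of time points alone does not decide it.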

By UniProt entry, the sequences of proteins in these tests, tags left out. Where a name states a change or a piece, a line headed by the entry shows the natural chain unless it says otherwise.
UniProt P50613: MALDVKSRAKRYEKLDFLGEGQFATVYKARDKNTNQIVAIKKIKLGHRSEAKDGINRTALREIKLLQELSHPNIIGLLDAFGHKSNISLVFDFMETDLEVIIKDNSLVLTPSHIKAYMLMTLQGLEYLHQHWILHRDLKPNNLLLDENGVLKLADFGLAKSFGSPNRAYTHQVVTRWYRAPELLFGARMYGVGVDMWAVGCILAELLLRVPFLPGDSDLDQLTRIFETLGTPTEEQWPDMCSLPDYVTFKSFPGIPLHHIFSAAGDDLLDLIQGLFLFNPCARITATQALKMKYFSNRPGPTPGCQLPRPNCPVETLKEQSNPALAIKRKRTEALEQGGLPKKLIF
UniProt P50750, whole entry: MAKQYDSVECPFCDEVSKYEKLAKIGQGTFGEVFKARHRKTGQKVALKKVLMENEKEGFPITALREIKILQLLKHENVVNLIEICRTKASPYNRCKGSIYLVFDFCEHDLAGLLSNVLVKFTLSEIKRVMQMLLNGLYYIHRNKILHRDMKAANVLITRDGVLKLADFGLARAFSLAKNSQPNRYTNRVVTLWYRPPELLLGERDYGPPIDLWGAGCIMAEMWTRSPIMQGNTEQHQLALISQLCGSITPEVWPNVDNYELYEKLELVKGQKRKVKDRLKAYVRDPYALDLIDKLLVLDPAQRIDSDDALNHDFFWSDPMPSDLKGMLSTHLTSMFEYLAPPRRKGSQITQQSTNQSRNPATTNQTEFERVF
UniProt O96017, whole entry: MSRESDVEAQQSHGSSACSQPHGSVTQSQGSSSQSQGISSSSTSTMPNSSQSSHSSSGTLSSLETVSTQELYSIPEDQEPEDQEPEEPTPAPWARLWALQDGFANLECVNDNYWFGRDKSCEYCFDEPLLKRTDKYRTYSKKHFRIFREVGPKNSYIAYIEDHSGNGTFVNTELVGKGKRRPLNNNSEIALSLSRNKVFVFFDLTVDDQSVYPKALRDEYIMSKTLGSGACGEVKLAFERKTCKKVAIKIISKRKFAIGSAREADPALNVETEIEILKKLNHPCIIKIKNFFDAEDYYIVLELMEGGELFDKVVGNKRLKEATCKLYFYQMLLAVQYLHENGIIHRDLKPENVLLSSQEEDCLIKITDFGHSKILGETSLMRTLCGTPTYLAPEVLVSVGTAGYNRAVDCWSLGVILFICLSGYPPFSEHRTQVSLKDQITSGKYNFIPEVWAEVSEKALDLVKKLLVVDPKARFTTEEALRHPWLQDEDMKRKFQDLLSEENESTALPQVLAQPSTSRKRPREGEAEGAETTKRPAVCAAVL
UniProt P07333, whole entry: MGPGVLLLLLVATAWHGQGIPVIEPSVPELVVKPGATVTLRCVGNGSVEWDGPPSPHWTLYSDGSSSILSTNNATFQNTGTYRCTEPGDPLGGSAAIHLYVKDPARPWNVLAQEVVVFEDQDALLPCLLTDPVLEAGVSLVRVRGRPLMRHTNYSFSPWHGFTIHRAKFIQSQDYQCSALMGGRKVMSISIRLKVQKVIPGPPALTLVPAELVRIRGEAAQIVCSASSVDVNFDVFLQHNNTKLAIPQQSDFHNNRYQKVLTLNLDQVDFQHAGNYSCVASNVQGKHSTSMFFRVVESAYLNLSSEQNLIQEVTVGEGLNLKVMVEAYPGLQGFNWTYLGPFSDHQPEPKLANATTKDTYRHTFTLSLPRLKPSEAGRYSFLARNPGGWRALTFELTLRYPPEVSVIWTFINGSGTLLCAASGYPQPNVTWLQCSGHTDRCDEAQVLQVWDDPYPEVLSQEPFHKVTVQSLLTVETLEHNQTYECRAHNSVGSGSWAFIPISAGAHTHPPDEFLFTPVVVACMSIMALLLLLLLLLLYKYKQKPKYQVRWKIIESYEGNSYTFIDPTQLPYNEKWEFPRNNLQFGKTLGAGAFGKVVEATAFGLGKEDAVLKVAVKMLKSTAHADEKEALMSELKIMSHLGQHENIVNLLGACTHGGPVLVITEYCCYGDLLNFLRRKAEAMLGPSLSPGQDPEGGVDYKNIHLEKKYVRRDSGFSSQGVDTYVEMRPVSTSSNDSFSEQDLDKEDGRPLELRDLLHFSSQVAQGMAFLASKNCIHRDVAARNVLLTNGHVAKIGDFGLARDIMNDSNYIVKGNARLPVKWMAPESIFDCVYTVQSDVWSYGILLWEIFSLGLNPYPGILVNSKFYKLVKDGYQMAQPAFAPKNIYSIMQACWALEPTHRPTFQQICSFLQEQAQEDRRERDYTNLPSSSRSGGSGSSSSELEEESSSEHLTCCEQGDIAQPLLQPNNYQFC
UniProt P41240: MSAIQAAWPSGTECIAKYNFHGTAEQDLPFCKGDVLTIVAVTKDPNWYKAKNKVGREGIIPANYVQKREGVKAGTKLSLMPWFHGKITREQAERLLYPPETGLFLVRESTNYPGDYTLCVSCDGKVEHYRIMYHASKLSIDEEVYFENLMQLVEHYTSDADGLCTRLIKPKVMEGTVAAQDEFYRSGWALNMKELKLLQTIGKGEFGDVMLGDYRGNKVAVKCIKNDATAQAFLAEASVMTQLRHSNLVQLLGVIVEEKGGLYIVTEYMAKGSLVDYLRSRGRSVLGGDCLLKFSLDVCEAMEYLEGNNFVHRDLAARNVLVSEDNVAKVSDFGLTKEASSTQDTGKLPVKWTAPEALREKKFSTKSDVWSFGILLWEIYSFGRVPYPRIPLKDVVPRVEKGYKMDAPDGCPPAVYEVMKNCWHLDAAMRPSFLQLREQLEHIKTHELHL
UniProt P48729: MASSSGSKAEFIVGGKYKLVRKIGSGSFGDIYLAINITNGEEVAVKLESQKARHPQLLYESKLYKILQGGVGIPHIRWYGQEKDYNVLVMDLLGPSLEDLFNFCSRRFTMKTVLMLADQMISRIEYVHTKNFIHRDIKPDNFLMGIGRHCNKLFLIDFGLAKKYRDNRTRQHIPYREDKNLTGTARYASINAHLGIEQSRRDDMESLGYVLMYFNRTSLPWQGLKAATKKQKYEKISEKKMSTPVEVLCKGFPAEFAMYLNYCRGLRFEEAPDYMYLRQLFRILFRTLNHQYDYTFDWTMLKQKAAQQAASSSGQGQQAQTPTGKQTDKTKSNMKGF
UniProt P48730: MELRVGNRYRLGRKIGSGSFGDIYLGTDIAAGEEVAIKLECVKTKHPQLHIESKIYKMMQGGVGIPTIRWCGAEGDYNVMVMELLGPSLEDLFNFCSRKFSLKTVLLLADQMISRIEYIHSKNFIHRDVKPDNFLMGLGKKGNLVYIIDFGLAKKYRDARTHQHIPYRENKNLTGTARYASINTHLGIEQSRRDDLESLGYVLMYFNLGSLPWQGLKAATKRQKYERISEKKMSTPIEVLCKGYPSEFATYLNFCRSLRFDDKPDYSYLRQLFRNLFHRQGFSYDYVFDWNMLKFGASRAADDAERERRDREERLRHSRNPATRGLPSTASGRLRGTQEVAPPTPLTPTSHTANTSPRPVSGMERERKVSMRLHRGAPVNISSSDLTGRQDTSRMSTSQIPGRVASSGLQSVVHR
UniProt Q08345: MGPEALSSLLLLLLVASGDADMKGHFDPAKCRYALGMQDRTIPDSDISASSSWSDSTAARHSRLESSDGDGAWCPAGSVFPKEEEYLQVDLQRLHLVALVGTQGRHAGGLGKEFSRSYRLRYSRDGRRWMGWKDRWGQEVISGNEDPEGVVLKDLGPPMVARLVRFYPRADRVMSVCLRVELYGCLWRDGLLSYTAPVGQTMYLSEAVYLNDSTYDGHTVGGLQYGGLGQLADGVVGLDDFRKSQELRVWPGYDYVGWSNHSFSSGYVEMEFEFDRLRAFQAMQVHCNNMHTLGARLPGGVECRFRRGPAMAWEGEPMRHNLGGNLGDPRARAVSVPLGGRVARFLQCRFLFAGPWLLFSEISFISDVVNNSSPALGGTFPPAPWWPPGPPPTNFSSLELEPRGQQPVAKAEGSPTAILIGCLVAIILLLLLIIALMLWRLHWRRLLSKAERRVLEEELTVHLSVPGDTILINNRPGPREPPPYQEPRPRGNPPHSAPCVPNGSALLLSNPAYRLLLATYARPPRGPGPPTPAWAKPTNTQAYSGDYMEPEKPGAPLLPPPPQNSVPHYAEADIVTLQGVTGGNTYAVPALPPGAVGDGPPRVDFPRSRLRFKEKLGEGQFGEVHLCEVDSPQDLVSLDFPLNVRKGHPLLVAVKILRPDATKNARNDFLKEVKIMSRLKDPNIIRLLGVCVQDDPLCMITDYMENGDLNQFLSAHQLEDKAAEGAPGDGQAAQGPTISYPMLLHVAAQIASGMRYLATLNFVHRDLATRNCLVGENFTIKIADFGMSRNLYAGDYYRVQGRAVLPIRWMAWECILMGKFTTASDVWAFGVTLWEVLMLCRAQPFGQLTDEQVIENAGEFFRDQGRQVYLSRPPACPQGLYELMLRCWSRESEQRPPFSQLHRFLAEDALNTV
UniProt Q9Y463, whole entry, looked up: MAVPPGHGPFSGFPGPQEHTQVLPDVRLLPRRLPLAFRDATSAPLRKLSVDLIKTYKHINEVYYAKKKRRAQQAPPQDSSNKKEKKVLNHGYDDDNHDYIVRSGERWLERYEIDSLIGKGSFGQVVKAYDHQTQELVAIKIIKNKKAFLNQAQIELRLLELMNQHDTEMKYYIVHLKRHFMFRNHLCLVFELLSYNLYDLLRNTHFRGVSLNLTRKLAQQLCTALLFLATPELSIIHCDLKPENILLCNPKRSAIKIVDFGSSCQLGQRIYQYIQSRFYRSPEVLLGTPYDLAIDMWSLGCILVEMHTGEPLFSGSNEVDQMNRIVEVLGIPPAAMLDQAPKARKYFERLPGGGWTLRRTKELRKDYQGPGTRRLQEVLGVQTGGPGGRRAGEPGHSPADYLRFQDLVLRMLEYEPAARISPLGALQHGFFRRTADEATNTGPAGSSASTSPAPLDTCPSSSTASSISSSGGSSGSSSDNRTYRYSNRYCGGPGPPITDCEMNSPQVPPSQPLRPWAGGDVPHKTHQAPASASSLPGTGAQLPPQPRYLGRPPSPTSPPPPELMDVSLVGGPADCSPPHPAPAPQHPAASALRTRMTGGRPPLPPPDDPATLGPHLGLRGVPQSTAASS
UniProt Q92630: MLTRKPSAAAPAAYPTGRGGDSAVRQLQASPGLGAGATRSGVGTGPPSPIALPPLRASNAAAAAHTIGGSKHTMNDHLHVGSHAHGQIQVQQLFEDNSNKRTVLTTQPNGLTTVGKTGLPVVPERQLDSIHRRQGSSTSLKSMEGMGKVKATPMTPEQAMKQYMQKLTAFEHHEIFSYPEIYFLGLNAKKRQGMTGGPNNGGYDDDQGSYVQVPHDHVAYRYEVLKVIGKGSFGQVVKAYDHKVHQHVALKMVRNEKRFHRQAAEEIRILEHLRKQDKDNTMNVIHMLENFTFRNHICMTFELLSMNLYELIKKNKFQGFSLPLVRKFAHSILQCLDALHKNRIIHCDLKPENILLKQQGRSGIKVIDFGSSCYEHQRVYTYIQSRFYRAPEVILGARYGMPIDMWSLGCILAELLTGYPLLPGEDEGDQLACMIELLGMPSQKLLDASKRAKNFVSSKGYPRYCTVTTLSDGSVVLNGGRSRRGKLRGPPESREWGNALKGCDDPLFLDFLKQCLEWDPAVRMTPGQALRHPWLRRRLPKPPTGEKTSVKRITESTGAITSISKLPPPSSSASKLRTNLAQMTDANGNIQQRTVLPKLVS

Experiments:
Experiment in all cases: kinase-Nluc reporter destabilization hit call (1 = scored as downregulated) (binary); higher = compound decreases kinase abundance
Details in all cases: K562; 2-18 h
CDK7 = CDK7 (UniProt P50613)
CDK9 = CDK9 (UniProt P50750)
CHEK2 = CHEK2 (UniProt O96017)
CSF1R = CSF1R (UniProt P07333)
CSK = CSK (UniProt P41240)
CSNK1A1 = CSNK1A1 (UniProt P48729)
CSNK1D = CSNK1D (UniProt P48730)
DDR1 = DDR1 (UniProt Q08345)
DYRK1B = DYRK1B (UniProt Q9Y463)
DYRK2 = DYRK2 (UniProt Q92630)

Measured: kinase-Nluc reporter destabilization hit call

CNCCOc1ccccc1C1(Nc2nccn(-c3cc(C(=O)NC4CC4)cc(F)c3C)c2=O)CC1 (10 µM)
inactive: CDK7 = 0 | CDK9 = 0 | CHEK2 = 0 | CSF1R 0 | CSK 0 | CSNK1A1 = 0 | CSNK1D 0 | DDR1 = 0 | DYRK1B 0 | DYRK2 = 0

CN(C)C(=O)c1cc2cnc(Nc3ccc(N4CCN(CCCCNC(=O)COc5cccc6c5C(=O)N(C5CCC(=O)NC5=O)C6=O)CC4)cn3)nc2n1C1CCCC1 (stereo not given) (10 µM)
inactive: CDK7 = 0 | CDK9 = 0 | CHEK2 = 0 | CSF1R 0 | CSK 0 | CSNK1A1 = 0 | CSNK1D 0 | DDR1 = 0 | DYRK1B 0 | DYRK2 = 0

Nc1ccc(O)c(C(=O)O)c1 [5-Aminosalicylic Acid] (10 µM)
inactive: CDK7 = 0 | CDK9 = 0 | CHEK2 = 0 | CSF1R 0 | CSK 0 | CSNK1A1 = 0 | CSNK1D 0 | DDR1 = 0 | DYRK1B 0 | DYRK2 = 0

Cn1cc(C2=C(c3ccc(Cl)cc3Cl)C(=O)NC2=O)c2ccccc21 (10 µM)
inactive: CDK7 = 0 | CDK9 = 0 | CHEK2 = 0 | CSF1R 0 | CSK 0 | CSNK1A1 = 0 | CSNK1D 0 | DDR1 = 0 | DYRK1B 0 | DYRK2 = 0

Cc1cc2c(F)c(Oc3ncnn4cc(OC[C@@H](C)OC(=O)[C@H](C)N)c(C)c34)ccc2[nH]1 [Brivanib (alaninate)] (10 µM)
inactive: CDK7 = 0 | CDK9 = 0 | CHEK2 = 0 | CSF1R 0 | CSK 0 | CSNK1A1 = 0 | CSNK1D 0 | DDR1 = 0 | DYRK1B 0 | DYRK2 = 0

CC1=C(C#N)C(c2ccc3[nH]nc(C)c3c2)C(C#N)=C(C)N1 (10 µM)
inactive: CDK7 = 0 | CDK9 = 0 | CHEK2 = 0 | CSF1R 0 | CSK 0 | CSNK1A1 = 0 | CSNK1D 0 | DDR1 = 0 | DYRK1B 0 | DYRK2 = 0

O=C(Nc1ccnc(NC(=O)C2CC2)c1)c1c(Cl)cccc1Cl (10 µM)
inactive: CDK7 = 0 | CDK9 = 0 | CHEK2 = 0 | CSF1R 0 | CSK 0 | CSNK1A1 = 0 | CSNK1D 0 | DDR1 = 0 | DYRK1B 0 | DYRK2 = 0

COc1cc(N2CCC(O)CC2)ccc1Nc1nc(Nc2ccccc2S(=O)(=O)C(C)C)c2[nH]cnc2n1 (10 µM)
inactive: CDK7 = 0 | CDK9 = 0 | CHEK2 = 0 | CSF1R 0 | CSK 0 | CSNK1A1 = 0 | CSNK1D 0 | DDR1 = 0 | DYRK1B 0 | DYRK2 = 0

CS(=O)(=O)c1ccc([C@@H](CC2CCCC2)C(=O)Nc2nccs2)cc1 (10 µM)
inactive: CDK7 = 0 | CDK9 = 0 | CHEK2 = 0 | CSF1R 0 | CSK 0 | CSNK1A1 = 0 | CSNK1D 0 | DDR1 = 0 | DYRK1B 0 | DYRK2 = 0

O=[N+]([O-])c1ccc(-c2nc(-c3ccc(F)cc3)c(-c3ccncc3)[nH]2)cc1 (10 µM)
active: CSNK1A1 = 1
inactive: CDK7 = 0 | CDK9 = 0 | CHEK2 = 0 | CSF1R 0 | CSK 0 | CSNK1D 0 | DDR1 = 0 | DYRK1B 0 | DYRK2 = 0

C[C@@H](NC(=O)c1ncnc(N)c1Cl)c1ncc(C(=O)Nc2cc(C(F)(F)F)c(Cl)cn2)s1 (2.5 µM)
inactive: CDK7 = 0 | CDK9 = 0 | CHEK2 = 0 | CSF1R 0 | CSK 0 | CSNK1A1 = 0 | CSNK1D 0 | DDR1 = 0 | DYRK1B 0 | DYRK2 = 0

Cc1cc(N2CCOCC2)ccc1Nc1nc(NC2CCCCC2)c2[nH]cnc2n1 (10 µM)
inactive: CDK7 = 0 | CDK9 = 0 | CHEK2 = 0 | CSF1R 0 | CSK 0 | CSNK1A1 = 0 | CSNK1D 0 | DDR1 = 0 | DYRK1B 0 | DYRK2 = 0

N=C(NC(=N)N1CCCC1)Nc1ccc(OC(F)(F)F)cc1 (10 µM)
inactive: CDK7 = 0 | CDK9 = 0 | CHEK2 = 0 | CSF1R 0 | CSK 0 | CSNK1A1 = 0 | CSNK1D 0 | DDR1 = 0 | DYRK1B 0 | DYRK2 = 0

COc1ccc(-c2cc(=O)c3c(O)cc(O)cc3o2)cc1-c1c(O)cc(O)c2c(=O)cc(-c3ccc(O)cc3)oc12 [Bilobetin] (2.5 µM)
inactive: CDK7 = 0 | CDK9 = 0 | CHEK2 = 0 | CSF1R 0 | CSK 0 | CSNK1A1 = 0 | CSNK1D 0 | DDR1 = 0 | DYRK1B 0 | DYRK2 = 0

COc1ccc2nc3ccc(OC)cc3c(SCCCN)c2c1 (10 µM)
inactive: CDK7 = 0 | CDK9 = 0 | CHEK2 = 0 | CSF1R 0 | CSK 0 | CSNK1A1 = 0 | CSNK1D 0 | DDR1 = 0 | DYRK1B 0 | DYRK2 = 0

O=CN1CCN(c2ccc(C=C3C(=O)Nc4ccccc43)cc2)CC1 (10 µM)
inactive: CDK7 = 0 | CDK9 = 0 | CHEK2 = 0 | CSF1R 0 | CSK 0 | CSNK1A1 = 0 | CSNK1D 0 | DDR1 = 0 | DYRK1B 0 | DYRK2 = 0

NC(=O)c1cnc(N[C@@H]2CCCC[C@@H]2N)nc1Nc1cccc(-n2nccn2)c1 (2.5 µM)
active: DDR1 = 1
inactive: CDK7 = 0 | CDK9 = 0 | CHEK2 = 0 | CSF1R 0 | CSK 0 | CSNK1A1 = 0 | CSNK1D 0 | DYRK1B 0 | DYRK2 = 0

Two successive entries from above, quoted:
N=C(NC(=N)N1CCCC1)Nc1ccc(OC(F)(F)F)cc1 (10 µM)
inactive: CDK7 = 0 | CDK9 = 0 | CHEK2 = 0 | CSF1R 0 | CSK 0 | CSNK1A1 = 0 | CSNK1D 0 | DDR1 = 0 | DYRK1B 0 | DYRK2 = 0

COc1ccc(-c2cc(=O)c3c(O)cc(O)cc3o2)cc1-c1c(O)cc(O)c2c(=O)cc(-c3ccc(O)cc3)oc12 [Bilobetin] (2.5 µM)
inactive: CDK7 = 0 | CDK9 = 0 | CHEK2 = 0 | CSF1R 0 | CSK 0 | CSNK1A1 = 0 | CSNK1D 0 | DDR1 = 0 | DYRK1B 0 | DYRK2 = 0

(more compounds)

Cc1ccc(NC(=O)N2CCN(c3nc(N)nc4sc(-c5cccnc5)nc34)CC2)cc1 [PI4KIII beta inhibitor 3] (10 µM)
inactive: CDK7 = 0 | CDK9 = 0 | CHEK2 = 0 | CSF1R 0 | CSK 0 | CSNK1A1 = 0 | CSNK1D 0 | DDR1 = 0 | DYRK1B 0 | DYRK2 = 0

Cc1nc2c(NCc3cccc(S(C)(=O)=O)c3)nccn2c1-c1ccc(O)c(F)c1 (10 µM)
inactive: CDK7 = 0 | CDK9 = 0 | CHEK2 = 0 | CSF1R 0 | CSK 0 | CSNK1A1 = 0 | CSNK1D 0 | DDR1 = 0 | DYRK1B 0 | DYRK2 = 0

CC(=O)Nc1nc(C)c(-c2cc(C)c3c(c2)CN([C@@H](C)C2CC2)C3=O)s1 (10 µM)
inactive: CDK7 = 0 | CDK9 = 0 | CHEK2 = 0 | CSF1R 0 | CSK 0 | CSNK1A1 = 0 | CSNK1D 0 | DDR1 = 0 | DYRK1B 0 | DYRK2 = 0

O=C(Nc1ccc(F)cc1F)C(NC(=S)Nc1cc(C(F)(F)F)cc(C(F)(F)F)c1)c1ccccc1 (racemic) (2.5 µM)
inactive: CDK7 = 0 | CDK9 = 0 | CHEK2 = 0 | CSF1R 0 | CSK 0 | CSNK1A1 = 0 | CSNK1D 0 | DDR1 = 0 | DYRK1B 0 | DYRK2 = 0

CCCCNc1ncc2c(-c3ccc(F)cc3)nn(CC3CCC(N)CC3)c2n1 (stereo not given) (2.5 µM)
inactive: CDK7 = 0 | CDK9 = 0 | CHEK2 = 0 | CSF1R 0 | CSK 0 | CSNK1A1 = 0 | CSNK1D 0 | DDR1 = 0 | DYRK1B 0 | DYRK2 = 0

CCOc1cc(N2CCC(O)CC2)ccc1Nc1ncc2c(n1)N(C1CCCC1)CCC(=O)N2C (2.5 µM)
inactive: CDK7 = 0 | CDK9 = 0 | CHEK2 = 0 | CSF1R 0 | CSK 0 | CSNK1A1 = 0 | CSNK1D 0 | DDR1 = 0 | DYRK1B 0 | DYRK2 = 0

CCCS(=O)(=O)N[C@H]1C[C@@H](N(C)c2ncnc3[nH]ccc23)C1 [Abrocitinib] (10 µM)
inactive: CDK7 = 0 | CDK9 = 0 | CHEK2 = 0 | CSF1R 0 | CSK 0 | CSNK1A1 = 0 | CSNK1D 0 | DDR1 = 0 | DYRK1B 0 | DYRK2 = 0

CO[C@@H]1[C@H](N(C)C(=O)c2ccccc2)C[C@H]2O[C@]1(C)n1c3ccccc3c3c4c(c5c6ccccc6n2c5c31)C(=O)NC4 [Midostaurin] (2.5 µM)
inactive: CDK7 = 0 | CDK9 = 0 | CHEK2 = 0 | CSF1R 0 | CSK 0 | CSNK1A1 = 0 | CSNK1D 0 | DDR1 = 0 | DYRK1B 0 | DYRK2 = 0

Cc1nn(CC(F)(F)F)cc1Nc1ncc(Br)c(NCc2ccc(S(N)(=O)=O)cc2)n1 (10 µM)
inactive: CDK7 = 0 | CDK9 = 0 | CHEK2 = 0 | CSF1R 0 | CSK 0 | CSNK1A1 = 0 | CSNK1D 0 | DDR1 = 0 | DYRK1B 0 | DYRK2 = 0

CCc1cc(Nc2nccc(-c3c(-c4ccc(OC)c(C(=O)Nc5c(F)cccc5F)c4)nc4ccccn34)n2)c(OC)cc1N1CCC(N2CCN(S(C)(=O)=O)CC2)CC1 (2.5 µM)
inactive: CDK7 = 0 | CDK9 = 0 | CHEK2 = 0 | CSF1R 0 | CSK 0 | CSNK1A1 = 0 | CSNK1D 0 | DDR1 = 0 | DYRK1B 0 | DYRK2 = 0
